Assay results published in article PMC5814282, “Biophysical studies and NMR structure of YAP2 WW domain - LATS1 PPxY motif complexes reveal the basis of their interaction” (Oncotarget, 2018).

Tested on: WW12
Assay: NMR titration (HSQC) of 15N-PY12 with unlabelled WW12
Assay type: binding, human

B1: PY12: LATS1 region PY12 (containing both PPxY motifs; aa 361-567) (protein)
chain: NVVPAGTVNRQPPPPYPLTAANGQSPSALQTGGSAAPSSYTNGSIPQSMMVPNRNSHNMELYNISVPGLQTNWPQSSSAPAQSSPSSGHEIPTWQPNIPVRSNSFNNPLGNRASHSANSQPSATTVTAITPAPIQQPVKSMRVLKPELQTALAPTHPSWIPQPIQTVQPSPFPEGTASNVTVMPPVAEAPNYQGPPPPYPKHLLHQN
modifications: left off: His-tag, end not stated, kept
15N-labelled PY12, final molar ratio 1:5, 20 mM Tris-HCl pH 7.0, 50 mM NaCl, 3% glycerol, 5 mM DTT, 2 mM EDTA
  HSQC change on addition of WW12: no significant change in the structure of PY12, with a shift in only a few peaks
Free 15N-labelled PY12, without WW12
  HSQC of free PY12: unstructured
